The results in this text go back to US4324788A, “Alkoxyalkylidenhydrazinopridazines and process for their preparation” (I.S.F. S.p.A., priority 1979, dated 1982).

For one assay, the system named is strips of rabbit aorta. As to the kind of experiment: Spasmolytic activity in vitro on strips of rabbit aorta with potassium chloride induced spasm. It is filed as cell-based. The note with it: Oryctolagus cuniculus, read-out: EC50 (relaxing 50% the strip of rabbit aorta). How it is done:
spasmolytic activity is determined evaluating the direct relaxant effect on the vasal smooth muscle in vitro on strips of rabbit aorta in which spasm was induced by potassium chloride according to the method described in Journ. of Pharm. and Exper. […] The products were added at sequentially cumulative molar doses and their activity indicated as Effective Concentration (EC50).

Assay [1] concerns guinea-pig isolated atria. The note with it: isoprenaline agonist, product at 10^-4 M.

In the case of `CC(C)NCC(O)COc1cccc2ccccc12` (centres unmarked) [Propanolol, reference compound], the EC50 in the assay on strips of rabbit aorta was above 10 mM. Besides, the “DR4 (dose ratio of agonist EC50 in the presence and in the absence of the product)” value in assay [1] is reported as 6500.
